According to paper PMC12040169 (PLOS Biology, 2025):
The other results are listed elsewhere or left out.

What follows are compounds tested on T1, CTL2-GFP (C. trachomatis L2/434/Bu, GFP-expressing). Details: bulk GFP, single well; 28.5 h, 10 µM; inhibitor.
T1 construct: L2/434/Bu, GFP-expressing
Set-up: species or system HeLa; Intracellular C. trachomatis growth in HeLa cells, bulk GFP fluorescence relative to DMSO

SMILES | % of control remaining
Cn1nc(NC(=O)CN2CCOC2=O)c2c(N3CCOCC3)cccc21 [CBK306830] | 126.234%
CNC(=O)CN1CCC[C@@H]2NC(=O)c3ccccc3OCCCCC[C@@H]21 [CBK292104] | 121.264%
COc1ccc(-c2cc(C(=O)NCCc3c[nH]cn3)cnc2-c2ccc(F)cc2)cn1 [CBK036675] | 84.614%
Cc1ccc(S(=O)(=O)N2CCN(C)CC2)cc1NC(=O)c1ccc(Br)o1 [CBK034260C] | 103.377%
O=C(NCCc1cccs1)Nc1cc(Cl)nc(Cl)c1 [CBK043762] | 78.275%
CC(Sc1ccc(S(=O)(=O)N2CCN(C)CC2)cn1)C(=O)Nc1ccc(C(C)(C)C)cc1 (stereo not drawn) [CBK297551] | 85.78%
COc1ccc(NC(=O)c2cnc(-c3cccc(C(F)(F)F)c3)c(-c3ccncc3)c2)cc1 [CBK037593] | 105.286%
O=C1NC2(CCCC2)C(=O)N1Cc1cnn(-c2ccccc2)n1 [CBK305568] | 94.6759%
COC(=O)c1ccccc1NC(=O)CSc1n[nH]c(-c2ccccc2Cl)n1 [CBK265966] | 95.6745%
Clc1ccc(CN2CCN(c3nccnc3OC3CCCCC3)CC2)cc1 [CBK082826T] | 75.8169%
CCOC(=O)N1N=C(c2ccc(F)cc2)CC1(O)C(F)(F)F (stereo not drawn) [CBK027156] | 115.258%
OCCN1CCN(c2ccc(-c3cc(C(F)(F)F)cc(C(F)(F)F)c3)cn2)CC1 [CBK036941] | 121.654%
O=C(/C=C(O)/C(O)=C/C(=O)c1ccc(Cl)cc1)c1ccc(Cl)cc1 [CBK261428] | 111.127%
O=C(O)CCC(=O)Nc1ccc(OC(F)F)cc1 [CBK264222] | 102.142%
O=[N+]([O-])c1ccc(S(=O)(=O)NCCc2nc3ccccc3[nH]2)cc1 [CBK261796] | 71.6066%
CN1C(=O)NC(c2ccc(Br)cc2)C2=C1CN(c1cccc(C(=O)O)c1)C2=O (stereo not drawn) [CBK286729] | 146.146%
COC(=O)c1cc(-c2ccccc2)sc1NC(=O)CSc1ncnc2sc3c(c12)CCC3 [CBK265978] | 165.52%
CCCCc1ccc(S(=O)(=O)n2ccc3c(N4CCNCC4)nccc32)cc1 [CBK045805C] | 110.156%
COc1cc(CNC(=O)N2CCCC(CO)C2)cc(OC)c1OC (stereo not drawn) [CBK156041] | 100.171%
Cc1csc(C(Cc2cccs2)NC(=O)CN(C)C)n1 (stereo not drawn) [CBK285124] | 110.96%

SMILES | % of control remaining
CN(C(=O)c1cc(O)nc2ccccc12)c1nccs1 [CBK297778] | 110.924%
O=P(O)(CCc1ccccc1)CN1CCCCC1 [CBK262318] | 125.775%
CCCCn1ncnc1-c1cnc2ccnn2c1C [CBK307305] | 107.517%
Cc1nc(-c2nnc(SCc3ccc(C(F)(F)F)cc3)o2)cs1 [CBK067715] | 94.1839%
CC(C)Nc1cc(OCc2ccc(F)cc2)ncn1 [CBK115654] | 122.735%
CCCc1cc(C(=O)OC)c(NC(=O)C2C3CCC(C3)C2C(=O)O)s1 (stereo not drawn) [CBK057885] | 120.23%
COc1cccc(C(=O)NCC(C)(C)SCc2ccc(F)cc2)c1 [CBK022322] | 74.6741%
CCn1c(=O)c(C=Cc2cc(OC)c(O)c(OC)c2)nc2cc(C(=O)O)ccc21 [CBK296701] | 131.842%
COc1ccc(OC)c(N2Cc3ccc(OC)c(OC)c3C2=O)c1 [CBK113161] | 131.131%
CNC(=O)c1cnc2sc3c(n2c1=O)CCCC3 [CBK288126] | 121.471%
CC(Oc1cccc2cccnc12)C(=O)N/N=C/c1ccc(-c2ccc(Br)cc2)o1 (stereo not drawn) [CBK262838] | 100%
Fc1ccc(-c2c[nH]c([C@@H]3COCCN3Cc3ncc[nH]3)n2)cc1 [CBK289263] | 134.078%
CCN(CC)C(=O)C1CCCN(C(=O)Nc2ccc(N(CC)CC)cc2)C1 (stereo not drawn) [CBK156139] | 95.0638%
Cc1ccc(CS(=O)(=O)N(CCO)C2CCC2)c(F)c1 [CBK304101] | 162.452%
O=C(NC(S(=O)O)C(F)(F)F)OCc1ccccc1 (stereo not drawn) [CBK018979] | 145.536%
NS(=O)(=O)c1ccc(-c2ccc(/C=C3/SC(=S)N(C4CCCCC4)C3=O)o2)cc1 [CBK263127] | 100%
N=C(NC(=S)Nc1ccccc1)N1CCN(Cc2ccccc2)CC1 [CBK267878] | 105.008%
COC(=O)c1ccc(N2CCN(Cc3nnnn3C3CC3)C(C)C2)cc1 (stereo not drawn) [CBK306129] | 77.8727%
Cc1ccc(C2CC(=O)Nc3nc(-c4ccccc4)[nH]c(=O)c32)c(C)c1 (stereo not drawn) [CBK287998] | 119.144%

2 consecutive compounds from above, quoted:
SMILES | % of control remaining
O=[N+]([O-])c1ccc(S(=O)(=O)NCCc2nc3ccccc3[nH]2)cc1 [CBK261796] | 71.6066%
CN1C(=O)NC(c2ccc(Br)cc2)C2=C1CN(c1cccc(C(=O)O)c1)C2=O (stereo not drawn) [CBK286729] | 146.146%
